According to patent US20170114128A1, “USE OF TGF-BETA ANTAGONISTS OF TREAT TYPE-2 DIABETES” (ALBERT EINSTEIN COLLEGE OF MEDICINE, INC., priority 2014, published 2017):

Test system: normal C57BL/6 mice
Assay: Intra-third ventricle injection of TGF-β1, GTT, ITT, food intake and body weight
Type: in vivo
Conditions: 24 hours after injection, same protocol
Description: Brain TGF-β excess impairs glucose tolerance: To study the metabolic effects of brain TGF-β excess, a pharmacological approach was first used by which TGF-β was delivered into the hypothalamic third ventricle of normal C57BL/6 mice via pre-implanted cannula. To optimize the dosage, different doses of TGF-β1 (0, 0.5, 1.0, and 4.0 ng) were injected, and TGF-β1 concentrations measured in the CSF at various time points post-injection. […] Based on this condition, overnight-fasted mice were given intra-third ventricle injections of TGF-β1 in these doses, one injection at night after food was removed, and the second injection in the following morning at 4 hours prior to glucose tolerance test (GTT). […] In sum, a pharmacological induction of brain TGF-β excess can acutely cause pre-diabetic changes including glucose intolerance and insulin resistance.
Animals. Tgfb1^lox/lox mice, Tgfbr2^lox/lox mice, Tgfb1^+/− mice, GFAP-Cre mice, and T1r4^−/− mice on C57BL/6 were obtained from Jackson (32,56-59) and continued to be maintained on C57BL/6. CMV-lox-stop-lox-Tgfb1 mice(30) obtained from Jackson were backcrossed into C57BL/6. POMC-Cre mice maintained on C57BL/6 were used in our previous research (20,60). […] Food intake and body weight of mice were measured using a laboratory scale. […] Blood glucose levels during GTT and ITT were measured with LifeScan® blood glucose monitoring system. […]

In the case of “TGF-β1: transforming growth factor-β1 (Sigma), cytokine dissolved in artificial cerebrospinal fluid for third-ventricle injection”, the body weight is reported as “did not affect” and the food intake is reported as “did not affect”.
